# The other results are listed elsewhere or left out. Most entries show no effect beyond the scatter of the controls.
# Chains of the proteins cited; added tags and fusions are not shown. Lines headed by an entry give the natural chain unless they say otherwise; changes in a name come on top.
# UniProt Q811U4: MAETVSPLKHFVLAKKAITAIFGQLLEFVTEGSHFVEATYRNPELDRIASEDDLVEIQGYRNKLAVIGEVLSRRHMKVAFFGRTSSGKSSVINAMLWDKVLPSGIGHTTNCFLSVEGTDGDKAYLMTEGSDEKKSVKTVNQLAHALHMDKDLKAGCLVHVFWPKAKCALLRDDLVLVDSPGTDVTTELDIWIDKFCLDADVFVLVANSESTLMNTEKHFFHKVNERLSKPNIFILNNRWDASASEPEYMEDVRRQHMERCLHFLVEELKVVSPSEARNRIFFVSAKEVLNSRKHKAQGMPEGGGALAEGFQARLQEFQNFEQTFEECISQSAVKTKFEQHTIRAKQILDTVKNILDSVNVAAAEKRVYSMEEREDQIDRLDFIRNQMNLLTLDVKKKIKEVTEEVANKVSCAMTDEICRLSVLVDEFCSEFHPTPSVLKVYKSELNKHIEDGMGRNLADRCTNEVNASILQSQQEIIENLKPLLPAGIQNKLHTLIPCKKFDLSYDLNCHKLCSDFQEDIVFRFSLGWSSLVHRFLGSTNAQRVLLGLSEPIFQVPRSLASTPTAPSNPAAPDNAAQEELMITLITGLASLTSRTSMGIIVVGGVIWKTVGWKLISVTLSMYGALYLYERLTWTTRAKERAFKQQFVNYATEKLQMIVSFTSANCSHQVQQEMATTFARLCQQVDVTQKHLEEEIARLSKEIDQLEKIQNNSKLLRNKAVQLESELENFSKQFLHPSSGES
# UniProt Q80X73, whole entry: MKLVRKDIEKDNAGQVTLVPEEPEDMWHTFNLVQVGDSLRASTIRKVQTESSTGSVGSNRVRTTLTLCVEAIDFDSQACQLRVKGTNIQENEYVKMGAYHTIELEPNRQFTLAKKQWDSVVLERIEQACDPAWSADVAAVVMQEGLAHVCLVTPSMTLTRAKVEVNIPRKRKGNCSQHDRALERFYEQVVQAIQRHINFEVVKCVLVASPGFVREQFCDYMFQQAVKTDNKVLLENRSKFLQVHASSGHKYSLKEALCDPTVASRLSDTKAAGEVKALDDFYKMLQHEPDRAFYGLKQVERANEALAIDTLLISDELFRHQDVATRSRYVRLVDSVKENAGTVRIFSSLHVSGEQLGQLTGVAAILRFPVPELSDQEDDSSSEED
# UniProt Q7TT28: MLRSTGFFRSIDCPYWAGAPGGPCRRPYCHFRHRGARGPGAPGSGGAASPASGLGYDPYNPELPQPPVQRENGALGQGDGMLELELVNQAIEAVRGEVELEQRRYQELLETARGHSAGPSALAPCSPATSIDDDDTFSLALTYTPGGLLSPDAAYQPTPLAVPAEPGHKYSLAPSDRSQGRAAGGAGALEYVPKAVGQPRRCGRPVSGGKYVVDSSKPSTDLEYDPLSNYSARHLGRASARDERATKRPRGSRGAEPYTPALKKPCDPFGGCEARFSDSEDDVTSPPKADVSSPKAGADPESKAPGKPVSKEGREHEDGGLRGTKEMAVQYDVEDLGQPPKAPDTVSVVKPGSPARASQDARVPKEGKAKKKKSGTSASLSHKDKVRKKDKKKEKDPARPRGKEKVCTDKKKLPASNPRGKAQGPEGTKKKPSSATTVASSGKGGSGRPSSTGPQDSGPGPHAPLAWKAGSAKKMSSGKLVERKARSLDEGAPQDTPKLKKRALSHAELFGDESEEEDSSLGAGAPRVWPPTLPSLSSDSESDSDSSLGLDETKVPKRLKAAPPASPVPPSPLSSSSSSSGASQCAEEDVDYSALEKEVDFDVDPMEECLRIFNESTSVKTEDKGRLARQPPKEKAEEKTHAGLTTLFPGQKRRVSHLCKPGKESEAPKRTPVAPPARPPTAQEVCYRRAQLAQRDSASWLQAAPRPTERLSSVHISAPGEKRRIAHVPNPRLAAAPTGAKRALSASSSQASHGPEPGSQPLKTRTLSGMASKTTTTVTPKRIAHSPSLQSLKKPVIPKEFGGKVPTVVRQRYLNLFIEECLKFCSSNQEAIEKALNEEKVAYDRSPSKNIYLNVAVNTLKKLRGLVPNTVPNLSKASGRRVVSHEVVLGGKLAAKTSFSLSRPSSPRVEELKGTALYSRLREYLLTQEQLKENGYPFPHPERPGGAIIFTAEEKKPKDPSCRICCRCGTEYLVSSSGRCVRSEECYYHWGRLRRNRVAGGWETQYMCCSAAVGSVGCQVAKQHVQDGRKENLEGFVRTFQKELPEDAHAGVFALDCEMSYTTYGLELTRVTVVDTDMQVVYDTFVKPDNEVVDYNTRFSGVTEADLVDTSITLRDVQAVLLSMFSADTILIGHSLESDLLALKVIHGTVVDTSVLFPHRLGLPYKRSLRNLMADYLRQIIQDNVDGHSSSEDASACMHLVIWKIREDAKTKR
# UniProt Q80VC9: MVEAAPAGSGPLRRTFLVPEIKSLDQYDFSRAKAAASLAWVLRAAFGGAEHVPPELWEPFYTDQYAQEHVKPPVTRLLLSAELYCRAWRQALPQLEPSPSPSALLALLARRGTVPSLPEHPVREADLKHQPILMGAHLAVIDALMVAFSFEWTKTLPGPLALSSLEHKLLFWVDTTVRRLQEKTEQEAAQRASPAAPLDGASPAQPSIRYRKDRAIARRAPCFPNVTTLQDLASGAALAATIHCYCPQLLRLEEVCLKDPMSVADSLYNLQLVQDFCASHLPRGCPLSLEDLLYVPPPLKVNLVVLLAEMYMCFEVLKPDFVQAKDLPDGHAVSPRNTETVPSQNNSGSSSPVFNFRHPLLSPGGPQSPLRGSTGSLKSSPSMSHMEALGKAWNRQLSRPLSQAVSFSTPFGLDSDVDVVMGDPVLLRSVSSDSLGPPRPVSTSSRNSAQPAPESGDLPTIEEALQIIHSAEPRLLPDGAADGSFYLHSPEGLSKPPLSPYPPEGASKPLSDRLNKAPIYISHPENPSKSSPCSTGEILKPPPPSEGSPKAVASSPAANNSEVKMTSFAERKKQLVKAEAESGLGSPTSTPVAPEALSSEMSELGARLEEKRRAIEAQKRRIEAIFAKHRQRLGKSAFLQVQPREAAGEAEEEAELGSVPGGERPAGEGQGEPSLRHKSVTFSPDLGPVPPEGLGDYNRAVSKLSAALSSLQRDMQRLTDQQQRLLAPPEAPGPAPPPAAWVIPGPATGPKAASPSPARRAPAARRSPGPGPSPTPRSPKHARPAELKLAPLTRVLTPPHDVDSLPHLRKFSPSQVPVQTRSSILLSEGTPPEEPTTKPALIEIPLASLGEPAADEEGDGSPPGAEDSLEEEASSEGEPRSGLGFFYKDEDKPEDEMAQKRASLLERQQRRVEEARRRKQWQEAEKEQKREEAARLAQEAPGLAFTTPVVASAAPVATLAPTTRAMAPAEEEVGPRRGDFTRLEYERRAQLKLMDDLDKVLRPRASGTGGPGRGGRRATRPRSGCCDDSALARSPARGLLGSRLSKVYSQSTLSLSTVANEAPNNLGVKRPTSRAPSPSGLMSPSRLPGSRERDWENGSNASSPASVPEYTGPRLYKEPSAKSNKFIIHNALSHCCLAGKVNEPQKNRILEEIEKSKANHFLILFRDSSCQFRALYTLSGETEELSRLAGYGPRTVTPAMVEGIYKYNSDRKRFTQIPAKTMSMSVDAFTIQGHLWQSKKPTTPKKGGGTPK
# UniProt Q78PG9: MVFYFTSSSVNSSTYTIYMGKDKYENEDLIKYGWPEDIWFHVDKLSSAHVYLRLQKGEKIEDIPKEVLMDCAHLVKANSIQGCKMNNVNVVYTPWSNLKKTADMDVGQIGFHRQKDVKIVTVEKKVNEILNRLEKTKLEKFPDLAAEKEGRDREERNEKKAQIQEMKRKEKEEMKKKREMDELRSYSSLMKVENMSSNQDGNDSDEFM
# UniProt Q80UU9: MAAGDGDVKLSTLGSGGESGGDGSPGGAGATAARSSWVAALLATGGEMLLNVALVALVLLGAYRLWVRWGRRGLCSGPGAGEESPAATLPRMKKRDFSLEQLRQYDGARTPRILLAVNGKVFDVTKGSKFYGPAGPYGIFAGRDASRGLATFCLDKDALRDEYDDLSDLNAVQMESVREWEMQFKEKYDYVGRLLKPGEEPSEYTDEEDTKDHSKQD
# UniProt Q8BG05: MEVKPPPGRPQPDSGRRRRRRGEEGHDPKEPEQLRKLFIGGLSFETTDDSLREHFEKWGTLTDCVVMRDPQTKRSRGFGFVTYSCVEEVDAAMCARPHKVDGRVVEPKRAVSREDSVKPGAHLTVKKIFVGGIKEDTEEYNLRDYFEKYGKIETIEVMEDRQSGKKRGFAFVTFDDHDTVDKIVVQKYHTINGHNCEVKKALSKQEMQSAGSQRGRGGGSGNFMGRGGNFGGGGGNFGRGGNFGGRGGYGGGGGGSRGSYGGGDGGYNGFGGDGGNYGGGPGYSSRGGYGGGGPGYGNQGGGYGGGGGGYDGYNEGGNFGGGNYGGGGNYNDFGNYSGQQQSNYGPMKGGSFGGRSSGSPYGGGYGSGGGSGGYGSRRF
# UniProt Q8BGC3: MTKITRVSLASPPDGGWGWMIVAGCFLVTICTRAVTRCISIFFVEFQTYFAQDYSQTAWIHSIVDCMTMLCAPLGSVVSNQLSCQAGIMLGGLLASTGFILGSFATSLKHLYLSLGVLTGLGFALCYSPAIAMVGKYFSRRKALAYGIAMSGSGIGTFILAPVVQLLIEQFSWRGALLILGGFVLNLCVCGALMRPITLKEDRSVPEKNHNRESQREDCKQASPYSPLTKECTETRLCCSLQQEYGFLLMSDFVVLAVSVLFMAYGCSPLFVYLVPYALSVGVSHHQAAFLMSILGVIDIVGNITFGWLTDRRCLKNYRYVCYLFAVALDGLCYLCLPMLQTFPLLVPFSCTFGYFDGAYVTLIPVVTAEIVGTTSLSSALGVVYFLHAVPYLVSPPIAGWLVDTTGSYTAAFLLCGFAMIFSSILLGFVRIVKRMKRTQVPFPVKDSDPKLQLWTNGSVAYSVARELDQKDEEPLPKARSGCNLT
# UniProt Q78KK3: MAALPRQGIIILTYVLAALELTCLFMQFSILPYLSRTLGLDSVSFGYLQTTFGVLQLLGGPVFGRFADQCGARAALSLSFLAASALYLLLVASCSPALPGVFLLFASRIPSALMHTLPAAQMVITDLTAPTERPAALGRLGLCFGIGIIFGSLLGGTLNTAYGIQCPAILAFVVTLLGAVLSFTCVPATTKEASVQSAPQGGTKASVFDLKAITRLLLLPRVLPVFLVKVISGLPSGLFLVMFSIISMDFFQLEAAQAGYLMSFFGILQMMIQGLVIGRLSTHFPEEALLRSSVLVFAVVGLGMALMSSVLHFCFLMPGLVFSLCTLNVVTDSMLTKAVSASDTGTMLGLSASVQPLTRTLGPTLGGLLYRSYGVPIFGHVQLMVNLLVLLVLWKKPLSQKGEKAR
# UniProt Q80Y81: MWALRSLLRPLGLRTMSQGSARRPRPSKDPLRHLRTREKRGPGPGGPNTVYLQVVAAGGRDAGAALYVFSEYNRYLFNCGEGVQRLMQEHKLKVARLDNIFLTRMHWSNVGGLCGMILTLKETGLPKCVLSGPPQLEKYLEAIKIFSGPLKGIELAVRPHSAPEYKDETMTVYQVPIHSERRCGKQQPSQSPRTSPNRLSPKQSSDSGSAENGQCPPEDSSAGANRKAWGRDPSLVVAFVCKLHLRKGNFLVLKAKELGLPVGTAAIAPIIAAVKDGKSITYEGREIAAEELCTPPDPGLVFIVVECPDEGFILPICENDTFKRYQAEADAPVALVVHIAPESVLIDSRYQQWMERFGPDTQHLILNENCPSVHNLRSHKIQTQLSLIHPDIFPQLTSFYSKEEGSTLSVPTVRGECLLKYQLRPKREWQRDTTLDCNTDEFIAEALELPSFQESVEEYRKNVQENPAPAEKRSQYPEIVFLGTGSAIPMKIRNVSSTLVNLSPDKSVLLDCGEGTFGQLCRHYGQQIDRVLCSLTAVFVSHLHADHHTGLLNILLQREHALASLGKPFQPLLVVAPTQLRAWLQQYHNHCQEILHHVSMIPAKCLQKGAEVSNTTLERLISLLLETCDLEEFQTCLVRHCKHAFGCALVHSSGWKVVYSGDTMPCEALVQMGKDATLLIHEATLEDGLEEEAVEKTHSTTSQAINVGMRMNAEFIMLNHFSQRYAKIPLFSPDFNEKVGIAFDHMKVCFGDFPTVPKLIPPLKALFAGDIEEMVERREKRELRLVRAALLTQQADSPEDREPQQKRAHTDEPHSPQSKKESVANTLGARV
# UniProt Q80WC7: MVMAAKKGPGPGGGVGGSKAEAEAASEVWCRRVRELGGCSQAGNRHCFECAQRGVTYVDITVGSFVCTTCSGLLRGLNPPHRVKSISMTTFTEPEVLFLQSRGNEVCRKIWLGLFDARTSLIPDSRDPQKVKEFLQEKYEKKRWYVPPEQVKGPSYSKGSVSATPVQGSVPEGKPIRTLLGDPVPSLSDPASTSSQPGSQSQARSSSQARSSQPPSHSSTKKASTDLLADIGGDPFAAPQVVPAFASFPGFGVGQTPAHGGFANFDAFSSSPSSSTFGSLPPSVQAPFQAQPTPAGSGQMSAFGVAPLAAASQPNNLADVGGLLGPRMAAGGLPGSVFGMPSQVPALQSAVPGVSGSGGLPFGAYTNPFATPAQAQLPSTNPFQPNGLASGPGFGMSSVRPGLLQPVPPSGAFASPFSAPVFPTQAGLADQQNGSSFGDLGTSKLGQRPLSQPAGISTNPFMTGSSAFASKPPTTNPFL
# Compound: CN[C@@H]1C[C@H]2O[C@@](C)([C@@H]1OC)n1c3ccccc3c3c4c(c5c6ccccc6n2c5c31)C(=O)NC4 [staurosporine]
# Test: log2 fold change of pooled soluble protein (PISA), ligand vs vehicle (log2 ratio); higher = more thermally stabilized
# Details: ligand concentration: 20 uM; assay format: PISA pool 52.9/55.5/58.6 C
row,Target,log2 fold change of pooled soluble protein
1,UniProt Q811U4,0.0416
2,UniProt Q7TQG1,-0.0265
3,UniProt Q80X73,0.0579
4,UniProt Q6P9R2,0.179
5,UniProt Q7TT28,-0.274
6,UniProt Q80VC9,-0.0254
7,UniProt Q80VJ3,-0.323
8,UniProt Q78IK4,-0.0517
9,UniProt Q80WR5,-0.0148
10,UniProt Q7TQH0,-0.00309
11,UniProt Q78PG9,-0.0553
12,UniProt Q811L6,0.0541
13,UniProt Q80W22,0.0287
14,UniProt Q80UU9,0.479
15,UniProt Q6PDN3,0.199
16,UniProt Q6P3D0,0.0445
17,UniProt Q8BG05,-0.00323
18,UniProt Q78PY7,-0.119

# Individual results from above.
# log2 fold change of pooled soluble protein, UniProt Q80VJ3 is entered as -0.323
# log2 fold change of pooled soluble protein, UniProt Q6P9R2 is entered as 0.179
# log2 fold change of pooled soluble protein, UniProt Q7TQG1 is entered as -0.0265

# More entries.

row,Target,log2 fold change of pooled soluble protein
1,UniProt Q80X19,-0.0738
2,UniProt Q8BFQ8,-0.000591
3,UniProt Q8BGH2,-0.168
4,UniProt Q80UG1,0.0644
5,UniProt Q8BGC3,0.143
6,UniProt Q78KK3,-0.0377
7,UniProt Q6QD59,-0.0464
8,UniProt Q7TQE6,-0.109
9,UniProt Q80WW9,-0.0679
10,UniProt Q80XC3,-0.0189
11,UniProt Q80Y81,0.00266
12,UniProt Q80ZS3,0.0638
13,UniProt Q7TNC4,0.201
14,UniProt Q8BG95,-0.354
15,UniProt Q811I0,0.0155
16,UniProt Q6PER3,0.0708
17,UniProt Q80WC7,-0.00619

# From the supplement of paper PMC12819154, “High-throughput peptide-centric local stability assay extends protein–ligand identification to membrane proteins, tissues and bacteria” (Nature Structural & Molecular Biology, 2025)
